Experimental data: patent US20250171450A1, “NOVEL COELENTERAZINE DERIVATIVES” (National Institute of Advanced Industrial Science and …, priority 2022, published 2025)

System: ALuc16, ALuc47, RLuc8.6SG, NanoLuc
Assay: Wavelength shift of bioluminescence spectra compared to natural coelenterazine
Type: biochemical
Conditions: compared to natural coelenterazine and the like

O=c1c(Cc2ccc(O)cc2)nc2c(Sc3ccc(F)cc3)[nH]c(-c3ccc(O)cc3)cn1-2 [structural formula (2-2)]
wavelength shift to the longer wavelength side: approximately 50 nm

O=c1c(Cc2ccc(O)cc2)nc2c(Sc3ccccc3)[nH]c(-c3ccc(O)cc3)cn1-2 [structural formula (2-1)]
wavelength shift to the longer wavelength side: approximately 50 nm
